Reference: PubChem BioAssay AID1671190 (National Center for Advancing Translational Sciences (NCATS), 2021)
In all, about 580,000 compounds went through this assay and about 6,100 (1.1%) were called active. The shares of active, inactive and inconclusive entries below differ from those in the screen. Calls follow the shape of the dose curve; as a rule, active = well fitted inhibition curve with a large enough effect; inconclusive = small, poorly fitted or top-dose-only effect, or another doubt; inactive = no such curve, though single readings can be large or run the other way. A potency beside an inconclusive call is a rough fit, not a confirmed value.

The chains behind the UniProt entries cited, without tags or fusion partners. Where a name states a change or a piece, a line headed by the entry shows the natural chain unless it says otherwise.
UniProt P18054: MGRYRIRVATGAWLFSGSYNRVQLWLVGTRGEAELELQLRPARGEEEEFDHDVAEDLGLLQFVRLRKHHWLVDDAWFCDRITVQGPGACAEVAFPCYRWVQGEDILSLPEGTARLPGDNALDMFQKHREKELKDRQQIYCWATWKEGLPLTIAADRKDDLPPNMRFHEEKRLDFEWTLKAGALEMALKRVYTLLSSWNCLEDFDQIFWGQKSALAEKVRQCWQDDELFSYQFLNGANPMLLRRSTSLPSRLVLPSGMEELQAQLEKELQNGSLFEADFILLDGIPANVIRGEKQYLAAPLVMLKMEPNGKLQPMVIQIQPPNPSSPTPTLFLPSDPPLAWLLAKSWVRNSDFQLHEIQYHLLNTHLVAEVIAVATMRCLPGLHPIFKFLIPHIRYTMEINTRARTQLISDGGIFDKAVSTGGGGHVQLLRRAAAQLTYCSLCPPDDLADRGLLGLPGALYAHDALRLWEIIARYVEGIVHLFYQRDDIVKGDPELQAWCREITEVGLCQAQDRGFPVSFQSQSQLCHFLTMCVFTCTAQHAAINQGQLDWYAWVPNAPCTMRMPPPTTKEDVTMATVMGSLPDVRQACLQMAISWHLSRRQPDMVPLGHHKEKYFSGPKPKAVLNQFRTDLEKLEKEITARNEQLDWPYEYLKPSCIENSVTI

biological target: Polyunsaturated fatty acid lipoxygenase ALOX12 (Homo sapiens) (UniProt P18054); experiment: Primary qHTS assay for inhibitors of human arachidonate 12S-lipoxygenase (ALOX12): Round 2; settings: purified 12hLO, xylenol orange hydroperoxide absorbance; series mostly up to 108 µM
Method in brief: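 Purified human 12hLO (150 nM final) in 25 mM Hepes, 0.01% Triton X-100, pH 7.0 was preincubated 15 min at room temperature with compound. Then 40 uM arachidonic acid was added, 30 min. Hydroperoxide was read by Fe-XO absorbance ratio 573/405 nm.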
Potency is read from the fitted curve at half-maximal effect.

| Structure (SMILES) | Potency |
| --- | --- |
| CCCCc1nn2cc(-c3ccc(CC)cc3)nc2s1 | inactive |
| COc1cccc(-c2ccc(=O)n(CC(=O)Nc3ccc(S(=O)(=O)NCC(C)C)cc3)n2)c1 | inconclusive: 50.1 µM [inhibitor, partial curve, poor fit] |
| O=C(CSc1nc2ncc(Cl)cc2[nH]1)c1ccc2c(c1)OCO2 | inconclusive: 100 µM [inhibitor, single point] |
| CC1CCCN(c2nc(-c3ccccn3)nc3ccccc23)C1 (centres undefined) | inactive |
| Cc1cc(C)n2c(SCc3ccc(Cl)cc3Cl)nnc2n1 | inconclusive: 14.1 µM [inhibitor, full curve, poor fit] |
| COc1ccc(C(=O)N2C=Cc3ccccc3C2C#N)cc1 (centres undefined) | inactive |
| Cc1c(C(=O)C(=O)NCc2ccccc2Cl)c2ccccc2n1C | inconclusive: 1.78 µM [inhibitor, full curve, poor fit] |
| CCCNc1c(NS(=O)(=O)c2ccc(Br)cc2)c(=O)oc2ccccc12 | inconclusive: 39.8 µM [inhibitor, partial curve, poor fit] |
| C=CCNC(=S)Nc1ccc(C)c(S(=O)(=O)N2CCCCC2)c1 | inactive |
| O=C1OC(c2ccccc2)=CC1=Cc1ccccc1O | inconclusive: 50.1 µM [inhibitor, partial curve, poor fit] |
| CC(C)N1C(C(=O)Nc2ncccn2)=C(O)c2ccccc2S1(=O)=O | inconclusive: 0.251 µM [inhibitor, full curve, poor fit] |
| COc1ccc(CC(=O)N[C@@H]2c3ccccc3C3(CCNCC3)[C@H]2OC)cc1 | inactive |
| COc1ccc(C2=C(C)C(N3CCC(C(=O)Nc4ccccc4F)CC3)=NS2(=O)=O)cc1 | inconclusive: 112 µM [inhibitor, partial curve, poor fit] |
| O=C(Nc1ccncc1)c1ccc(C(=O)Nc2ccncc2)cc1 | inactive |
| Nc1nccnc1C(=O)NCCSC1CCCC1 | inactive |
| Cc1ccc(S(=O)(=O)N2C[C@@H](C)[C@]3(C2)[C@H](O)[C@H](OC(=O)Nc2c(C)noc2C)C[C@H]2C(=O)N(c4ccccc4)C(=O)[C@H]23)cc1 | inconclusive: 89.1 µM [inhibitor, single point] |
| CCOc1ccccc1N1CCN(C(=O)c2ccc(Cl)c(S(=O)(=O)N3CCCCC3)c2)CC1 | inactive |
| O=[N+]([O-])c1ccc2c(c1)S(=O)(=O)C=C2 | inconclusive: 1 µM [inhibitor, full curve, poor fit] |
| Cc1oc2cc(OCCN3CCC(C(N)=O)CC3)ccc2c(=O)c1-c1ccc(Br)cc1 | inconclusive: 50.1 µM [inhibitor, partial curve, poor fit] |

At a glance, some entries already given.

| Structure (SMILES) | Potency |
| --- | --- |
| CCCNc1c(NS(=O)(=O)c2ccc(Br)cc2)c(=O)oc2ccccc12 | inconclusive: 39.8 µM [inhibitor, partial curve, poor fit] |
| C=CCNC(=S)Nc1ccc(C)c(S(=O)(=O)N2CCCCC2)c1 | inactive |
| O=C1OC(c2ccccc2)=CC1=Cc1ccccc1O | inconclusive: 50.1 µM [inhibitor, partial curve, poor fit] |
| CC(C)N1C(C(=O)Nc2ncccn2)=C(O)c2ccccc2S1(=O)=O | inconclusive: 0.251 µM [inhibitor, full curve, poor fit] |
